From US8518883B2, “Method of reducing deleterious effects of ischemia by administration of a thrombopoietin receptor ligand” (MCW Research Foundation, Inc., priority 2006, dated 2013)
At least one compound was matched to its structure with a doubt left.

Test system: in vitro rat hearts
Experiment: Isolated perfused (Langendorff) rat heart, 25 min global ischemia and 180 min reperfusion: hemodynamics, infarct size, recovery of LVDP
Conditions: Wortmannin 100 nM 15 min alone, then with Tpo 1.0 ng/ml 15 min prior to ischemia
Experimental: The study was directed to determining whether Tpo (0.01-10.0 ng/ml) confers immediate cardioprotection in rat hearts and the contribution of potassium channels to the underlying mechanism. Hearts from normoxic 8 week old Sprague Dawley rats (n=8/group) were isolated and perfused in the Langendorff mode. Hemodynamic function was recorded under steady-state conditions prior to 25 minutes global no flow ischemia and 180 minutes reperfusion.
Isolated heart perfusion. Isolated rat hearts were perfused with bicarbonate buffer at constant pressure in a retrograde manner and instrumented as described in Baker, et al., Am. J. Physiol. Heart Circulat. Physiol. […] Left ventricular function was monitored continuously throughout each experiment as described in Baker, et al., supra, 2000. […] The balloon was then progressively inflated with a microsyringe to set end-diastolic pressures to 8 mmHg for the left ventricle, with developed pressure and heart rate recorded during steady-state conditions. Coronary flow rate was measured throughout the experiment by timed collections of the coronary effluent from the right side of the heart into a graduated cylinder. Coronary flow rate was expressed as milliliters per minute per gram wet weight.
Resistance to myocardial ischemia. […] Recovery of post-ischemic left ventricular developed pressure was expressed as a percentage of its pre-drug, pre-ischemic value. […]

COC[C@H]1OC(=O)c2coc3c2[C@@]1(C)C1=C(C3=O)[C@@H]2CCC(=O)[C@@]2(C)C[C@H]1OC(C)=O [Wortmannin, reference compound]
Effect on the cardioprotective effect of Tpo (infarct size, LVDP recovery): completely abolished
